The values below come from patent US20220088024A1, “METHODS FOR TREATING CANCER USING TOZADENANT” (Biotie Therapies, Inc., priority 2018, published 2022).

The assay deals with CT26 colon carcinoma tumor. Description: Example 4: anti-tumor responses of SYN-115 in the CT26 tumor mouse model (tumor area, survival). The format is in vivo, BALB/c mice. Set-up: key: tumor area, width*length, in mm^2. As to the method: The BALB/c mouse colon carcinoma cell line CT26 was cultured in RPMI supplemented with 10% FCS, GlutaMAX, and penicillin/streptomycin. Tumor cells are periodically verified to be Mycoplasma negative by the Victorian Infectious Diseases References Lab (Melbourne, VIC, Australia) by PCR analysis. 1×10^5 cells were resuspended in PBS and injected s.c. into BALB/c mice in a 100 μL volume. At day 9, tumors were measured and mice were randomized into distinct treatment groups to ensure that each group had tumors of similar size at the onset of treatment. Mice were treated i.p. at days 9, 13 and 17 with either isotype control (2A3; 200 μg/mouse) or anti-PD-1 mAb (RMP1-14, 200 μg/mouse) and where indicated, SYN-115 (Batch 71236AA002) at the indicated dose or vehicle control once-daily via oral gavage on days 14 to 29. To calculate a dose of SYN-115 mouse weight was estimated to be 20 g per mouse. Therefore, 100 mg/kg=2 mg per mouse in […] which is equivalent to 10 mg/ml. To make up 40 mL, 400 milligrams of SYN-115 was weighed and added into a Falcon tube, then 1 mL of Tween 80 was added and mixed into a paste and then 39 mL of 1% Methyl Cellulose was added. The solution was vortexed and then left on a rotating mixer for at least 2 hours and maintained at 4° C. Tumor measurements were taken 2-3 times per week. Tumor sizes were determined by width * length and mice were culled when tumors reached the ethical limit of 150 mm^2.

SMILES strings stand for the structures. “And” between values parts separate entries of the source, which are not always exact repeats. Equal entries are not always repeated. The source gives many values for each of these; only a part stands here.

With `COc1ccc(N2CCOCC2)c2sc(NC(=O)N3CCC(C)(O)CC3)nc12` [SYN-115, 4-hydroxy-4-methyl-piperidine-1-carboxylic acid (4-methoxy-7-morpholin-4-yl-benzothiazol-2-yl)-amide], the “Raw Tumor Measurements” value was 12.95 and 14.44 and 18.36 and 18.62 and 20.72 and 21.07 (Anti-PD-1 (200 ug)+SYN-115 (30 mg/kg), Day 0); 27.45 and 34.72 and 42.88 and 40.71 and 53.4 and 41.89 (Anti-PD-1 (200 ug)+SYN-115 (30 mg/kg), Day 4); 72.24 and 98.79 and 101.76 (Anti-PD-1 (200 ug)+SYN-115 (30 mg/kg), Day 19); 13.02 and 13.12 and 18.4 and 18.48 and 20.79 and 21 (Anti-PD-1 (200 ug)+SYN-115 (100 mg/kg), Day 0); 7.25 (Anti-PD-1 (200 ug)+SYN-115 (100 mg/kg), Day 15); 0 (Anti-PD-1 (200 ug)+SYN-115 (100 mg/kg), Day 19). Further, the “Raw Tumor Measurements” value was 0 (Anti-PD-1 (200 ug)+SYN-115 (100 mg/kg), Day 22); 0 (Anti-PD-1 (200 ug)+SYN-115 (100 mg/kg), Day 25); 0 (Anti-PD-1 (200 ug)+SYN-115 (100 mg/kg), Day 28).
